According to the supplement of paper PMC8728848:
The other results are listed elsewhere or left out.

What was measured:
Experiment in all cases: glycan array binding signal (z-score within array); higher = stronger binding
Conditions in all cases: glycan notation: IUPAC condensed, linker removed
Fuc(a1-2)Gal = target: Fuc(a1-2)Gal
Procedure, shortened: (§1)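 The binding signal is a Z-score computed within each array and averaged over linkers. Arrays of the same protein sequence at different concentrations or buffers were also averaged together. Data originate from 3228 arrays in the Consortium for Functional Glycomics database, kept only where the protein sequence was available.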

Fuc(a1-2)Gal(b1-3)GalNAc = target: Fuc(a1-2)Gal(b1-3)GalNAc
Procedure, shortened: as §1

[1] = target: Fuc(a1-2)Gal(b1-3)GalNAc(a1-3)[Fuc(a1-2)]Gal(b1-4)Glc
Procedure, shortened: as §1

[2] = target: Fuc(a1-2)Gal(b1-3)GalNAc(a1-3)[Fuc(a1-2)]Gal(b1-4)GlcNAc
Procedure, shortened: as §1

[3] = target: Fuc(a1-2)Gal(b1-3)GalNAc(b1-3)Gal
Procedure, shortened: as §1

[4] = target: Fuc(a1-2)Gal(b1-3)GalNAc(b1-3)Gal(a1-4)Gal(b1-4)Glc
Procedure, shortened: as §1

[5] = target: Fuc(a1-2)Gal(b1-3)GalNAc(b1-4)[Neu5Ac(a2-3)]Gal(b1-4)Glc
Procedure, shortened: as §1

Fuc(a1-2)Gal(b1-3)GlcNAc = target: Fuc(a1-2)Gal(b1-3)GlcNAc
Procedure, shortened: as §1

[6] = target: Fuc(a1-2)Gal(b1-3)GlcNAc(b1-2)Man(a1-3)[Fuc(a1-2)Gal(b1-3)GlcNAc(b1-2)Man(a1-6)]Man(b1-4)GlcNAc(b1-4)GlcNAc
Procedure, shortened: as §1

[7] = target: Fuc(a1-2)Gal(b1-3)GlcNAc(b1-2)Man(a1-3)[Fuc(a1-2)Gal(b1-3)GlcNAc(b1-2)Man(a1-6)]Man(b1-4)GlcNAc(b1-4)[Fuc(a1-6)]GlcNAc
Procedure, shortened: as §1

[8] = target: Fuc(a1-2)Gal(b1-3)GlcNAc(b1-3)Gal(b1-4)Glc
Procedure, shortened: as §1

[9] = target: Fuc(a1-2)Gal(b1-3)GlcNAc(b1-3)GalNAc
Procedure, shortened: as §1

[10] = target: Fuc(a1-2)Gal(b1-3)GlcNAc(b1-3)[Fuc(a1-2)Gal(b1-3)GlcNAc(b1-6)]GalNAc
Procedure, shortened: as §1

[11] = target: Fuc(a1-2)Gal(b1-3)GlcNAc(b1-3)[Gal(b1-4)GlcNAc(b1-6)]Gal(b1-4)Glc
Procedure, shortened: as §1

[12] = target: Fuc(a1-2)Gal(b1-3)GlcNAc(b1-3)[Neu5Ac(a2-6)Gal(b1-4)GlcNAc(b1-6)]Gal(b1-4)Glc
Procedure, shortened: as §1

[13] = target: Fuc(a1-2)Gal(b1-3)GlcNAc6S
Procedure, shortened: as §1

[14] = target: Fuc(a1-2)Gal(b1-3)[Fuc(a1-4)]GlcNAc
Procedure, shortened: as §1

[15] = target: Fuc(a1-2)Gal(b1-3)[Fuc(a1-4)]GlcNAc(b1-2)Man(a1-3)[Fuc(a1-2)Gal(b1-3)[Fuc(a1-4)]GlcNAc(b1-2)Man(a1-3)]Man(b1-4)GlcNAc(b1-4)GlcNAc
Procedure, shortened: as §1

[16] = target: Fuc(a1-2)Gal(b1-3)[Fuc(a1-4)]GlcNAc(b1-2)Man(a1-3)[Fuc(a1-2)Gal(b1-3)[Fuc(a1-4)]GlcNAc(b1-2)Man(a1-6)]Man(b1-4)GlcNAc(b1-4)[Fuc(a1-6)]GlcNAc(b1-4)[Fuc(a1-6)]GlcNAc
Procedure, shortened: as §1

[17] = target: Fuc(a1-2)Gal(b1-3)[Fuc(a1-4)]GlcNAc(b1-3)[Fuc(a1-3)[Gal(b1-4)]GlcNAc(b1-6)]Gal(b1-4)Glc
Procedure, shortened: as §1

[18] = target: Fuc(a1-2)Gal(b1-3)[Fuc(a1-4)]GlcNAc(b1-3)[Gal(b1-4)GlcNAc(b1-6)]Gal(b1-4)Glc
Procedure, shortened: as §1

Fuc(a1-2)Gal(b1-4)Glc = target: Fuc(a1-2)Gal(b1-4)Glc
Procedure, shortened: as §1

Fuc(a1-2)Gal(b1-4)Glc6S = target: Fuc(a1-2)Gal(b1-4)Glc6S
Procedure, shortened: as §1

Fuc(a1-2)Gal(b1-4)GlcNAc = target: Fuc(a1-2)Gal(b1-4)GlcNAc
Procedure, shortened: as §1

[19] = target: Fuc(a1-2)Gal(b1-4)GlcNAc(b1-2)Man
Procedure, shortened: as §1

[20] = target: Fuc(a1-2)Gal(b1-4)GlcNAc(b1-2)Man(a1-3)[Fuc(a1-2)Gal(b1-4)GlcNAc(b1-2)Man(a1-6)]Man(b1-4)GlcNAc(b1-4)GlcNAc
Procedure, shortened: as §1

[21] = target: Fuc(a1-2)Gal(b1-4)GlcNAc(b1-2)Man(a1-3)[Fuc(a1-2)Gal(b1-4)GlcNAc(b1-2)Man(a1-6)]Man(b1-4)GlcNAc(b1-4)[Fuc(a1-6)]GlcNAc
Procedure, shortened: as §1

[22] = target: Fuc(a1-2)Gal(b1-4)GlcNAc(b1-2)[Fuc(a1-2)Gal(b1-4)GlcNAc(b1-4)]Man(a1-3)[Fuc(a1-2)Gal(b1-4)GlcNAc(b1-2)Man(a1-6)]Man(b1-4)GlcNAc(b1-4)GlcNAc
Procedure, shortened: as §1

[23] = target: Fuc(a1-2)Gal(b1-4)GlcNAc(b1-3)Gal(b1-4)GlcNAc
Procedure, shortened: as §1

[24] = target: Fuc(a1-2)Gal(b1-4)GlcNAc(b1-3)Gal(b1-4)GlcNAc(b1-2)Man(a1-3)[Fuc(a1-2)Gal(b1-4)GlcNAc(b1-3)Gal(b1-4)GlcNAc(b1-2)Man(a1-6)]Man(b1-4)GlcNAc(b1-4)GlcNAc
Procedure, shortened: as §1

[25] = target: Fuc(a1-2)Gal(b1-4)GlcNAc(b1-3)Gal(b1-4)GlcNAc(b1-3)Gal(b1-4)GlcNAc
Procedure, shortened: as §1

[26] = target: Fuc(a1-2)Gal(b1-4)GlcNAc(b1-3)GalNAc
Procedure, shortened: as §1

[27] = target: Fuc(a1-2)Gal(b1-4)GlcNAc(b1-3)[Fuc(a1-2)Gal(b1-4)GlcNAc(b1-6)]GalNAc
Procedure, shortened: as §1

[28] = target: Fuc(a1-2)Gal(b1-4)GlcNAc(b1-3)[Fuc(a1-3)[Gal(b1-4)]GlcNAc(b1-6)]Gal(b1-4)Glc
Procedure, shortened: as §1

[29] = target: Fuc(a1-2)Gal(b1-4)GlcNAc(b1-6)GalNAc
Procedure, shortened: as §1

[30] = target: Fuc(a1-2)Gal(b1-4)GlcNAc6S
Procedure, shortened: as §1

[31] = target: Fuc(a1-2)Gal(b1-4)[Fuc(a1-3)]GlcNAc
Procedure, shortened: as §1

B1: Epa3to2 (Candida glabrata) (protein)
chain: MGSSHHHHHHSSGLVPRGSHMKRELSSQNPFGYPIGCSPQDVAIIPGLTMELYSYPIVSGTPPNCYDASYVDPEYPRTGYLKRKMVGKSTGVTGNLNYKYSVEKACMVKYGNLPAGYNYNEPLTVSNFTMILYGYFKAQTTGLHTFFVNADDLLYINFGAGNAFDCCKREDSKTKLGEYVAYDIWHVDSSKNKVSLFLEKDLYYPIRMFFNNRDNNSSLDLSFSVNGATDQISDFSGYLYSVPDQPDTCPAHIGYDTTCR
- glycan array binding signal (z-score) (Fuc(a1-2)Gal): -1.2
- glycan array binding signal (z-score) (Fuc(a1-2)Gal(b1-3)GalNAc): -0.585
- glycan array binding signal (z-score) [1]: -1.29
- glycan array binding signal (z-score) [2]: -1.02
- glycan array binding signal (z-score) [3]: 3.03
- glycan array binding signal (z-score) [4]: 0.739
- glycan array binding signal (z-score) [5]: 0.301
- glycan array binding signal (z-score) (Fuc(a1-2)Gal(b1-3)GlcNAc): -0.953
- glycan array binding signal (z-score) [6]: 1.32
- glycan array binding signal (z-score) [7]: 0.176
- glycan array binding signal (z-score) [8]: -0.162
- glycan array binding signal (z-score) [9]: -0.312
- glycan array binding signal (z-score) [10]: 0.318
- glycan array binding signal (z-score) [11]: 1.2
- glycan array binding signal (z-score) [12]: -1.28
- glycan array binding signal (z-score) [13]: -0.819
- glycan array binding signal (z-score) [14]: -1.03
- glycan array binding signal (z-score) [15]: 2.1
- glycan array binding signal (z-score) [16]: 1.1
- glycan array binding signal (z-score) [17]: -0.621
- glycan array binding signal (z-score) [18]: 0.392
- glycan array binding signal (z-score) (Fuc(a1-2)Gal(b1-4)Glc): -0.73
- glycan array binding signal (z-score) (Fuc(a1-2)Gal(b1-4)Glc6S): -0.819
- glycan array binding signal (z-score) (Fuc(a1-2)Gal(b1-4)GlcNAc): -0.426
- glycan array binding signal (z-score) [19]: -0.407
- glycan array binding signal (z-score) [20]: 0.506
- glycan array binding signal (z-score) [21]: -0.035
- glycan array binding signal (z-score) [22]: 0.924
- glycan array binding signal (z-score) [23]: -0.587
- glycan array binding signal (z-score) [24]: -0.112
- glycan array binding signal (z-score) [25]: -0.318
- glycan array binding signal (z-score) [26]: -0.913
- glycan array binding signal (z-score) [27]: 1.22
- glycan array binding signal (z-score) [28]: -0.565
- glycan array binding signal (z-score) [29]: -0.057
- glycan array binding signal (z-score) [30]: -0.709
- glycan array binding signal (z-score) [31]: -0.245
